No constants are given. Whether binding was seen depends on the method and setting. Some entries that bind do so weakly or less than the wild type.
Key:
[1] = target: T1, rat DKK1 (Novartis) (rat) (UniProt A6I0Z0); test: SET (BioVeris)
T1 sequence: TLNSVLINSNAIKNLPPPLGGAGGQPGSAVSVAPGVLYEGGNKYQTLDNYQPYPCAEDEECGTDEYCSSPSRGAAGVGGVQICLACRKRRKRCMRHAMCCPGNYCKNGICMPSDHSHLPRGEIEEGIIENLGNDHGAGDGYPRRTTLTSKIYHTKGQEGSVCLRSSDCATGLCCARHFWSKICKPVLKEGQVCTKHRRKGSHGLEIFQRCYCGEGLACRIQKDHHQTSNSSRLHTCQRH

[2] = target: cynomolgus DKK1 (cynomolgus monkey (Macaca fascicularis)); test: SET (BioVeris)

B1: anti-DKK1/4 antibody (antibody, V domains shown)
VH: QVQLVESGGGLVQPGGSLRLSCAASGFTFSSYWMSWVRQAPGKGLEWVSGISYSGSNTHYADSVKGRFTISRDNSKNTLYLQMNSLRAEDTAVYYCARMGIDLDYWGQGTLVTVSS
VL: DIALTQPASVSGSPGQSITISCTGTSSDVGGFNYVSWYQQHPGKAPKLMIHDGSNRPSGVSNRFSGSKSGNTASLTISGLQAEDEADYYCQSWDVSPITAVFGGGTKLTVLG
For B1, the binding [1] was “binds” and the binding [2] was “binds”.

— patent US20120023600A1
